Data set [1] concerns β-conglutin. The data set can be described thus: ELAA. Particulars: Binding buffer, native protein.
Data set [2] deals with β-conglutin. Kind of data set: sandwich ELAA. The note with it: Binding buffer, native protein.
The test system of data set [3] is β-conglutin. Kind of data set: MST. Particulars: none (non-modified version of HB8); Binding buffer; native protein; single-stranded DNA.
For data set [4], the system named is β-conglutin. The data set can be described thus: competitive ELAA. Particulars: LOD 273 pM (not a Kd); Binding buffer; native protein; label: 5'-biotin (Table S1), 5'-thiol (sandwich); single-stranded DNA.
[5] abbreviates: capture β-CBA-I or β-CBA-II, minimal binding, dAEIn in extended part after the primer, label: 5'-Cy5, 5'-biotin, synthetic backbone.
[6] abbreviates: immobilized capture, label: 5'-biotin (Table S1), 5'-thiol (sandwich), single-stranded DNA.

The exact form of at least one protein or probe is not confirmed. For some assays here: No signal at the amounts used counts as a negative. For some assays here: Weaker means in comparison with the reference protein, sequence or condition of that experiment. For some assays here: At least one verdict rests on a figure or table, not on a statement of the authors.

Turning to “AGCTCCAGAAGATAAATTACAGGCCAAGATCTCGCGAGTTCCCAACAGGGCAGAGAGATGCCCGACACCAGTG [HB8_T1]”, the binding result in data set [1] (Kd similar to HB8, dA in nt 24-73 = dAEIn, label: 5'-Cy5 (MST), 5'-biotin (ELAA, BLI), synthetic backbone) is given as “binds”; in data set [2] (capture β-CBA-I, SGQ or β-CBA-II, dA in nt 24-73 = dAEIn, label: 5'-Cy5 (MST), 5'-biotin (ELAA, BLI), synthetic backbone), “binds”.
In the case of “AGCTCCAGAAGATAAATTACAGGCCAAGATCTCGCGAGTTCCCAACAGGGCAGAGAGATGCCCGACACCAGTGCAACTAGGATACTATGACCCC [HB8N]”, in data set [3], the binding result is “no binding”.
Take “AGCTCCAGAAGATAAATTACAGGCCAAGATCTCGCGAGTTCCCAACAGGGCAGAGAGATGCCCGACACCAGTGCAACTAGGATACTATGACCCC [HB8]”: the binding result in data set [2] (capture β-CBA-I, SGQ or β-CBA-II, dA outside the 5' primer region (nt 24-94) replaced by indole-modified dA (dAEIn), label: 5'-Cy5 (MST), 5'-biotin (ELAA, BLI), synthetic backbone) is “binds”.
With “AGCTCCAGAAGATAAATTACAGGGCGTATGCGGAGCATCAACTAAGTTCGATTCATTGCGCCGAGAACACCACAACGCAACGACCCCGGCAGCA [HB8_SC1]”, the binding result in data set [2] (setting [5]) is on record as “binds more weakly”.
For “AGCTCCAGAAGATAAATTACAGGGGCCGGGGTGGCTCAGGCAAGGGGTTGACCTGTCGTAGGGATTGTTTTAACAACTAGGATACTATGACCCC [β-CBA-II]”, the binding result in data set [2] (setting [6]) and in data set [4] was “binds” throughout.
On to “AGCTGACACAGCAGGTTGGTGGGGGTGGCTTCCAGTTGGGTTGACAATACGTAGGGACACGAAGTCCAACCACGAGTCGAGCAATCTCGAAAT [β-CBA-I]”, for which the binding result in data set [1] (β-conglutin on magnetic beads, label: 5'-biotin (Table S1), 5'-thiol (sandwich), single-stranded DNA) is given as “binds”; in data set [2] (setting [6]), “binds”.
“GGTAAATGGAATATAGCCCAACACATTGAAGCCGGCAACTCGTACCCGAAGCGCGAGGGCAAGTACTCCAGCA [HB8_SC2]”: in data set [2] (setting [5]), the binding result is “binds more weakly”.
With GGTGGGGGTGG [SGQ], the binding result in data set [2] (setting [6]) is given as “binds”.
